Screen size: about 330,000 compounds; about 100 (0.03%) were called active. Inconclusive means that the source gave no clear call. Such entries were picked first, then a sample of the others. Calls follow the shape of the dose curve; as a rule, active = well fitted inhibition curve with a large enough effect; inconclusive = small, poorly fitted or top-dose-only effect; inactive = flat fitted curve, though single readings scatter. Where the call is inconclusive, the potency comes from a doubtful curve fit.
These molecules were tested on Chaperonin Mm-Cpn (Methanococcus maripaludis) (assay: Inhibitors of TCP-1 ring complex (TRiC) of Methanococcus maripaludis (MmCpn): qHTS). Settings: purified Mm-Cpn ATPase, ADP Transcreener TR-FRET; series mostly up to 76.9 µM; activity, negative = inhibition: at the top concentration.
How it was run: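 TR-FRET (320 nm excitation; 590 and 665 nm emission) reports ADP made from 10 uM ATP by 25 nM enzyme; compounds were preincubated 10 min, reaction run 30 min, both at 37°C.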
With `O=C(CN1C(=O)NC(c2ccccc2)(c2ccccc2)C1=O)NCc1ccco1` the Potency was inconclusive: 56.2 µM [inhibitor, single point].
For `Cc1ccc(-c2nsc3c(N4CCC(C(N)=O)CC4)ncnc23)cc1`, the Potency was inconclusive: 89.1 µM [inhibitor, single point].
With `CC(C)NC(=O)NC(=O)CN1C(=O)NC2(CCc3ccccc3C2)C1=O` (stereo not drawn) the Potency was inconclusive: 100 µM [inhibitor, partial curve, poor fit].
`CCOc1ccc(N2C(=O)CC(Sc3n[nH]c(-c4ccccc4)n3)C2=O)cc1` (stereo not drawn) was tested, and the “activity, negative = inhibition” value was inactive: -1.04%.
In the case of `O=C(COC(=O)c1c2c(nc3ccccc13)CCCC2)c1cccs1`, the Potency is reported as inconclusive: 100 µM [inhibitor, single point].
With `CC(=O)c1cccc(NC(=O)CNC(=O)c2cc3ccccc3o2)c1` the Potency was inconclusive: 89.1 µM [inhibitor, single point].
In the case of `Cc1ccc(C)n1Cc1ccc(C(=O)O)cc1`, the “activity, negative = inhibition” value is reported as inactive: -3.92%.
In the case of `O=C(CSc1nnc(-c2ccccn2)o1)Nc1ccc(F)cc1`, the “activity, negative = inhibition” value is reported as inactive: -1.19%.
For `COc1ccccc1N1CCN(CC(=O)Nc2nccs2)CC1`, the Potency was inconclusive: 79.4 µM [inhibitor, single point].
With `CCCCCCCNC(=O)COc1ccc2c(c1)C(=O)CC(C)(C)O2` the “activity, negative = inhibition” value was inactive: -1.21%.
In the case of `Cc1nc2ccccc2n1S(=O)(=O)c1cc(C(=O)O)ccc1Cl`, the Potency is reported as inconclusive: 14.1 µM [inhibitor, single point].
In the case of `Cc1ccc2[nH]c3c(=S)nc[nH]c3c2c1`, the Potency is reported as inconclusive: 100 µM [inhibitor, partial curve, poor fit].
`CC(=O)Nc1ccc(S(=O)(=O)NCCNC(=O)c2ccccc2F)cc1` was tested, and the Potency was inconclusive: 14.1 µM [inhibitor, single point].
With `CCC(C)N=CC1=C(O)CC(c2ccccc2)CC1=O` (stereo not drawn) the Potency was inconclusive: 79.4 µM [inhibitor, single point].
For `NC/C(=N\O)c1ccc(Cl)cc1Cl`, the Potency was inconclusive: 100 µM [inhibitor, single point].
`COc1ccccc1NS(=O)(=O)c1cc(NC(=O)CCC(=O)c2cccs2)ccc1Cl` was tested, and the Potency was inconclusive: 79.4 µM [inhibitor, single point].
In the case of `CC(=O)NC1C(=O)N(CCN2CCOCC2)c2ccc(F)cc21` (stereo not drawn), the “activity, negative = inhibition” value is reported as inactive: -6.99%.
`CCCCNC(=O)C(C)N(CCN(C)C)C(=O)CCCN1C(=O)NC(c2ccc(Cl)cc2)C(C(=O)OCc2ccccc2)=C1C` (stereo not drawn) was tested, and the Potency was inconclusive: 100 µM [inhibitor, single point].
In the case of `COc1cc2sc(-c3ccc(S(C)(=O)=O)cc3)c(C(=O)NCc3ccc(C)o3)c2cc1OC`, the Potency is reported as active: 50.1 µM.
For `COc1ccc(NC(=O)/C=C/C(=O)O)cc1Cl`, the Potency was active: 6.31 µM.
`CCN(CC)CCSc1nc2ccccc2n1Cc1ccccc1` was tested, and the “activity, negative = inhibition” value was inactive: -9.58%.
In the case of `COc1ccc(C)cc1Nc1n[n+](-c2ccccc2)c(-c2ccc(SC)cc2)s1`, the Potency is reported as inconclusive: 56.2 µM [inhibitor, partial curve, poor fit].
With `C=CCOC(=O)C1=C(C)NC(=O)NC1c1ccc(O)cc1` (stereo not drawn) the “activity, negative = inhibition” value was inactive: 0.228%.
`Cc1ccc(Nc2nc(-c3cccs3)cs2)nc1` was tested, and the “activity, negative = inhibition” value was inactive: -3.11%.
With `COc1ccc([N+](=O)[O-])cc1NCc1cccc([N+](=O)[O-])c1` the Potency was inconclusive: 10 µM [inhibitor, single point].
`CCCCC(=O)N(c1ccc(OC)cc1)C1C=CS(=O)(=O)C1` (stereo not drawn) was tested, and the Potency was inconclusive: 79.4 µM [inhibitor, single point].
For `O=C(c1ccc(-c2ccc([N+](=O)[O-])cc2)o1)N1CCCC(C(F)(F)F)C1` (stereo not drawn), the Potency was inconclusive: 17.8 µM [inhibitor, single point].
For `CCOC(=O)CSc1nnc([C@H](Cc2ccccc2)NC(=O)OC(C)(C)C)o1`, the “activity, negative = inhibition” value was inactive: 0.815%.
For `COc1ccc(CNC(=O)C(CC(C)C)NC(=O)c2ccccc2C)cc1` (stereo not drawn), the Potency was inconclusive: 70.8 µM [inhibitor, single point].
`CCOC(=O)c1sc(=S)n(-c2ccc(F)c(F)c2)c1N` was tested, and the “activity, negative = inhibition” value was inactive: -0.232%.
In the case of `COc1ccc(NC(=O)Cn2nnc(-c3ccccc3NS(=O)(=O)c3ccc(OC)cc3)n2)cc1`, the Potency is reported as inconclusive: 56.2 µM [inhibitor, single point].
For `Cc1sc(N/N=C/c2cccnc2)nc1-c1ccc(Cl)cc1`, the Potency was inconclusive: 63.1 µM [inhibitor, single point].
`COc1cc(CC(=O)Nc2ccc3nc(SC)sc3c2)cc(OC)c1OC` was tested, and the Potency was inconclusive: 251 µM [inhibitor, partial curve, poor fit].
For `CSc1cccc(NCc2ccc([N+](=O)[O-])cc2)c1`, the Potency was inconclusive: 12.6 µM [inhibitor, single point].
`CC1=C(C(=O)Nc2cccc(C)n2)C(c2ccc3c(c2)OCO3)C2=C(CC(c3ccco3)CC2=O)N1` (stereo not drawn) was tested, and the “activity, negative = inhibition” value was inactive: 0.32%.
With `O=C(O)CNC(=O)c1ccc2c(c1)OCCO2` the “activity, negative = inhibition” value was inactive: 0.0632%.
In the case of `COC(=O)Cn1c(=NC(=O)c2ccc(S(=O)(=O)N3CCc4ccccc4C3)cc2)sc2cc(OC)ccc21`, the “activity, negative = inhibition” value is reported as inactive: -23.6%.
For `CC1=C(C(=O)OCc2ccc3c(c2)OCO3)C(c2ccccc2OCc2ccccc2)NC(=O)N1` (stereo not drawn), the “activity, negative = inhibition” value was inactive: 0.125%.
`Cc1cc(=O)[nH]c(SCCCOc2ccccc2Cl)n1` was tested, and the Potency was inconclusive: 79.4 µM [inhibitor, single point].
With `Cc1cccc(CN2CCC(C(=O)Nc3cccc(-c4cccc(F)c4)c3)CC2)n1` the “activity, negative = inhibition” value was inactive: 1.79%.
In the case of `Cc1cc(C)n(-c2ccc(C(=O)OCC(=O)c3ccc(Br)s3)cc2)n1`, the Potency is reported as inconclusive: 70.8 µM [inhibitor, partial curve].
For `CN1CCN(c2ccc(S(=O)(=O)N3CCCCC3)cc2NC(=O)/C=C/c2ccc(OC(F)F)cc2)CC1`, the “activity, negative = inhibition” value was inactive: -4.34%.
For `N#C/C(=C\c1ccccc1)C(=O)NNS(=O)(=O)c1ccc(Br)cc1`, the “activity, negative = inhibition” value was inactive: 0.0522%.
`O=C(C[n+]1cc(-c2ccc(Cl)cc2)n2c1CCCCC2)c1ccccc1` was tested, and the “activity, negative = inhibition” value was inactive: -1.65%.
With `CCNC(=O)COC(=O)c1cc(=O)[nH]c2ccccc12` the “activity, negative = inhibition” value was inactive: -0.789%.
`CC1(C(=O)NCC2CC2)C=CC2(CCCCC2)N1C(=O)c1ccccc1` (stereo not drawn) was tested, and the Potency was inconclusive: 12.6 µM [inhibitor, single point].
`CCOc1cccc(C(=O)NNC(=O)C2C3C=CC(C3)C2C(=O)O)c1` (stereo not drawn) was tested, and the “activity, negative = inhibition” value was inactive: 1.02%.
For `O=C(COc1ccccc1)NCC(=O)NC1=NCCS1`, the Potency was inconclusive: 22.4 µM [inhibitor, single point].

Reference: PubChem BioAssay AID504842 (National Center for Advancing Translational Sciences (NCATS), 2011)
% is scaled to controls: 0 for no effect and ±100 for the full control effect; potency is read from the fitted curve at half-maximal effect.
Also: nearly all actives have a fitted effect of over 80% in size.
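For potency in this document: enzyme at 25 nM with ATP substrate at 10 µM during the reaction.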
